Experimental data from article doi:10.1101/2021.06.28.447216.
These are yes or no findings as the source states them, for the method shown. Binding seen in cells or lysates may run through a third protein. A yes stands for co-enrichment or nearness to the bait. Other partners may have been found. One block for each binder: values may come before it.

Chains of the proteins cited; added tags and fusions are not shown.
UniProt P83916: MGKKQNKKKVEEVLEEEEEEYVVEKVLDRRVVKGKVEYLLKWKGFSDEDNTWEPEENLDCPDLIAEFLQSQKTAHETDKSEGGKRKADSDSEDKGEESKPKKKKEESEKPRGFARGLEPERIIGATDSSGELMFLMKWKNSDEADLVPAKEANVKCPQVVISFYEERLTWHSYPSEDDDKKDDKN
UniProt P45973: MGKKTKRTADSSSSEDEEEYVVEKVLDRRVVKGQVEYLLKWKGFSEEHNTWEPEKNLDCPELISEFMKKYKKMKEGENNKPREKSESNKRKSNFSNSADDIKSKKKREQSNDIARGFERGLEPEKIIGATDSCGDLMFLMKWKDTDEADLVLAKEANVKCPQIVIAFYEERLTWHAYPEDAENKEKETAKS

Legend:
Assay in all cases: proximity labelling
Flag-BirA*HP1-β (human) = Flag-BirA*HP1-β (human) (UniProt P83916)
Flag-BirA*HP1-α (human) = Flag-BirA*HP1-α (human) (UniProt P45973)
[1] = target: Flag-BirA*HP1-α (human), P45973; settings: remark: other sources report otherwise

- binding (Flag-BirA*HP1-β (human)): binds
- binding (Flag-BirA*HP1-α (human)): binds
B1: POGO transposable element derived with ZNF domain protein (POGZ) (protein, UniProt Q7Z3K3 1-1410)
chain: MADTDLFMECEEEELEPWQKISDVIEDSVVEDYNSVDKTTTVSVSQQPVSAPVPIAAHASVAGHLSTSTTVSSSGAQNSDSTKKTLVTLIANNNAGNPLVQQGGQPLILTQNPAPGLGTMVTQPVLRPVQVMQNANHVTSSPVASQPIFITTQGFPVRNVRPVQNAMNQVGIVLNVQQGQTVRPITLVPAPGTQFVKPTVGVPQVFSQMTPVRPGSTMPVRPTTNTFTTVIPATLTIRSTVPQSQSQQTKSTPSTSTTPTATQPTSLGQLAVQSPGQSNQTTNPKLAPSFPSPPAVSIASFVTVKRPGVTGENSNEVAKLVNTLNTIPSLGQSPGPVVVSNNSSAHGSQRTSGPESSMKVTSSIPVFDLQDGGRKICPRCNAQFRVTEALRGHMCYCCPEMVEYQKKGKSLDSEPSVPSAAKPPSPEKTAPVASTPSSTPIPALSPPTKVPEPNENVGDAVQTKLIMLVDDFYYGRDGGKVAQLTNFPKVATSFRCPHCTKRLKNNIRFMNHMKHHVELDQQNGEVDGHTICQHCYRQFSTPFQLQCHLENVHSPYESTTKCKICEWAFESEPLFLQHMKDTHKPGEMPYVCQVCQYRSSLYSEVDVHFRMIHEDTRHLLCPYCLKVFKNGNAFQQHYMRHQKRNVYHCNKCRLQFLFAKDKIEHKLQHHKTFRKPKQLEGLKPGTKVTIRASRGQPRTVPVSSNDTPPSALQEAAPLTSSMDPLPVFLYPPVQRSIQKRAVRKMSVMGRQTCLECSFEIPDFPNHFPTYVHCSLCRYSTCCSRAYANHMINNHVPRKSPKYLALFKNSVSGIKLACTSCTFVTSVGDAMAKHLVFNPSHRSSSILPRGLTWIAHSRHGQTRDRVHDRNVKNMYPPPSFPTNKAATVKSAGATPAEPEELLTPLAPALPSPASTATPPPTPTHPQALALPPLATEGAECLNVDDQDEGSPVTQEPELASGGGGSGGVGKKEQLSVKKLRVVLFALCCNTEQAAEHFRNPQRRIRRWLRRFQASQGENLEGKYLSFEAEEKLAEWVLTQREQQLPVNEETLFQKATKIGRSLEGGFKISYEWAVRFMLRHHLTPHARRAVAHTLPKDVAENAGLFIDFVQRQIHNQDLPLSMIVAIDEISLFLDTEVLSSDDRKENALQTVGTGEPWCDVVLAILADGTVLPTLVFYRGQMDQPANMPDSILLEAKESGYSDDEIMELWSTRVWQKHTACQRSKGMLVMDCHRTHLSEEVLAMLSASSTLPAVVPAGCSSKIQPLDVCIKRTVKNFLHKKWKEQAREMADTACDSDVLLQLVLVWLGEVLGVIGDCPELVQRSFLVASVLPGPDGNINSPTRNADMQEELIASLEEQLKLSGEHSESSTPRPRSSPEETIEPESLHQLFEGESETESFYGFEEADLDLMEI

- binding [1]: binds
B2: EHMT1, Q9H9B1 1-1298 (protein)
chain: MAAADAEAVPARGEPQQDCCVKTELLGEETPMAADEGSAEKQAGEAHMAADGETNGSCENSDASSHANAAKHTQDSARVNPQDGTNTLTRIAENGVSERDSEAAKQNHVTADDFVQTSVIGSNGYILNKPALQAQPLRTTSTLASSLPGHAAKTLPGGAGKGRTPSAFPQTPAAPPATLGEGSADTEDRKLPAPGADVKVHRARKTMPKSVVGLHAASKDPREVREARDHKEPKEEINKNISDFGRQQLLPPFPSLHQSLPQNQCYMATTKSQTACLPFVLAAAVSRKKKRRMGTYSLVPKKKTKVLKQRTVIEMFKSITHSTVGSKGEKDLGASSLHVNGESLEMDSDEDDSEELEEDDGHGAEQAAAFPTEDSRTSKESMSEADRAQKMDGESEEEQESVDTGEEEEGGDESDLSSESSIKKKFLKRKGKTDSPWIKPARKRRRRSRKKPSGALGSESYKSSAGSAEQTAPGDSTGYMEVSLDSLDLRVKGILSSQAEGLANGPDVLETDGLQEVPLCSCRMETPKSREITTLANNQCMATESVDHELGRCTNSVVKYELMRPSNKAPLLVLCEDHRGRMVKHQCCPGCGYFCTAGNFMECQPESSISHRFHKDCASRVNNASYCPHCGEESSKAKEVTIAKADTTSTVTPVPGQEKGSALEGRADTTTGSAAGPPLSEDDKLQGAASHVPEGFDPTGPAGLGRPTPGLSQGPGKETLESALIALDSEKPKKLRFHPKQLYFSARQGELQKVLLMLVDGIDPNFKMEHQNKRSPLHAAAEAGHVDICHMLVQAGANIDTCSEDQRTPLMEAAENNHLEAVKYLIKAGALVDPKDAEGSTCLHLAAKKGHYEVVQYLLSNGQMDVNCQDDGGWTPMIWATEYKHVDLVKLLLSKGSDINIRDNEENICLHWAAFSGCVDIAEILLAAKCDLHAVNIHGDSPLHIAARENRYDCVVLFLSRDSDVTLKNKEGETPLQCASLNSQVWSALQMSKALQDSAPDRPSPVERIVSRDIARGYERIPIPCVNAVDSEPCPSNYKYVSQNCVTSPMNIDRNITHLQYCVCIDDCSSSNCMCGQLSMRCWYDKDGRLLPEFNMAEPPLIFECNHACSCWRNCRNRVVQNGLRARLQLYRTRDMGWGVRSLQDIPPGTFVCEYVGELISDSEADVREEDSYLFDLDNKDGEVYCIDARFYGNVSRFINHHCEPNLVPVRVFMAHQDLRFPRIAFFSTRLIEAGEQLGFDYGERFWDIKGKLFSCRCGSPKCRHSSAALAQRQASAAQEAQEDGLPDTSSAAAADPL
